# From patent US11690856B2, “Compounds for treating CMV related diseases” (INSERM (INSTITUT NATIONAL DE LA SANTE ET DE LA RECHERCHE …, priority 2017, dated 2023)
# For at least one compound, name, drawing or mass did not settle the structure.
# System: microglia
# Experiment: Flow cytometry of brain leukocytes (CD45, CD11b/c, RT1B) for microglia status
# Format: in vivo, rat
# Conditions: whole brain at P1
# Description: Wistar rats (Janvier Labs, France) were raised and mated at INMED Post Genomic Platform (PPGI) animal facility. Rat cytomegalovirus (rat CMV) recombinant Maastricht strain (RCMV-Δ145-147-gfp) with a green fluorescent protein (GFP) expression cassette, and its production, purification and titration, were reported previously (17). In utero icv injections were performed at E15 as previously described (9,18) in embryos from timed pregnant rats that were anaesthetized with ketamine (100 mg/kg)/xylazine (10 mg/kg). […] Microglia status was modified in the embryos in vivo with doxycycline per os given to the mother throughout pregnancy (200 mg/kg in food pellet chow, Bioserv).
# Leukocytes from brains obtained from anesthetized P1 or P7 pups were isolated as previously described (9). 1 to 3×10^6 leukocytes were incubated with Zombie NIR Fixable Viability kit (1:200; Bio legend) for 20 min at RT. Fc receptors were blocked using mouse anti-rat CD32 antibody (FcγII receptor, clone D34-485) for 10 min. at 4° C. to prevent against nonspecific binding. Cells were then stained with antibodies against combinations of cell surface markers as previously listed and described (9). An average of 1.3×10^5 living singlet cells were analyzed per brain equivalent on a BD LSRFortessa cell cytometer and raw data were analyzed using FACSDiva V8.0 software (BD Biosciences).
structure (smiles),measurement,value
C[C@H]1c2cccc(O)c2C(=O)C2=C(O)[C@]3(O)C(=O)C(C(N)=O)=C(O)[C@@H](N(C)C)[C@@H]3[C@@H](O)[C@@H]21 [doxycycline],proportions of other types of CD45+ hematopoietic cells,not changed
